PubChem BioAssay AID2685 (National Center for Advancing Translational Sciences (NCATS), 2010)
About 2,100 (0.66%) of roughly 320,000 compounds were called active. The inconclusive results got no clear call from the source; some entries with a clear call stand among them for comparison. Calls follow the shape of the dose curve; as a rule, active = well fitted inhibition curve with a large enough effect in the signal ratio, with a control signal flat (not every such curve was filed as active); inconclusive = small, poorly fitted or top-dose-only effect, or effect the other way, or a change in a side signal; inactive = flat fitted curve, though single readings scatter; the % refers to the signal ratio. Potencies of inconclusive entries are doubtful fits and often do not repeat.

assay: qHTS Assay for Lipid Storage Modulators in Drosophila S3 Cells; conditions: BODIPY lipid droplet fluorescence, 18-24 h, cells fed with added oleic acid; lipid storage change, negative = inhibition: at 46.1 µM (top of the series) unless noted
In short: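 Drosophila S3 cells got compounds at several concentrations plus oleic acid (400 uM solution). Laser-scanning cytometry with 488 nm excitation read lipid droplets at 500-530 nm and cells at 575-640 nm. Percent activity was relative to 20 uM Triacsin C.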
% is scaled to controls: 0 for no effect and ±100 for the full control effect; potency is read from the fitted curve at half-maximal effect.

SMILES	lipid storage change, negative = inhibition	Potency
COc1ccc(Cc2nnc(NS(=O)(=O)c3ccccc3)s2)cc1	inconclusive: 9.51%	–
Cc1cc(NS(=O)(=O)c2ccc3c(c2)OCCO3)no1	inactive	–
O=C(NCC1CCCN1S(=O)(=O)c1cccs1)C(=O)Nc1ccccc1 (centres undefined)	inconclusive	–
Cc1ccc(NC(=O)C2CCN(S(=O)(=O)c3ccc4c(c3)C(C)(C)C(=O)N4C)CC2)c(C)c1	–	inconclusive: 20.6 µM [activator, single point]
O=C1CSC(c2ccc3c(c2)OCO3)N1c1ccc(Oc2ccccc2)cc1 (centres undefined)	inconclusive: 12.1%	–
CC(=O)c1sc(N/N=C\c2ccccc2O)nc1C	–	inconclusive: 0.82 µM [falling, full curve, poor fit]
COc1ccccc1N1CCN(C(=O)c2cccs2)CC1	inconclusive: 8.38%	–
Cc1ccc(S(=O)(=O)CCC(=O)Nc2cc(Cl)ccc2-n2cncn2)cc1	inconclusive	–
CCc1c(C)nc(SCC(=O)c2ccc(C)c(C)c2)[nH]c1=O	–	inconclusive: 18.4 µM [activator, single point]
CCCCn1nnc(NC(=O)COc2cc(C)ccc2C(C)C)n1	inconclusive: 32.8%	–
CCC1(C)Cc2c(sc3c2c(=O)n(C)c2nnc(SCc4ccccc4)n32)CO1 (centres undefined)	inconclusive: 51.3%	–
O=C(COc1ccc([N+](=O)[O-])cc1)Nc1ccc(S(=O)(=O)N2CCOCC2)cc1	inconclusive: -22.3%	–
O=c1[nH]c(-c2ccc(O)cc2)nc2scc(-c3cccs3)c12	inconclusive: 28.7%	–
COc1cc(OC)cc(C(=O)OCC(=O)Nc2ccc(N3CCCCC3)cc2)c1	–	inconclusive: 3.26 µM [activator, single point]
COc1cccc2cc(CC(=O)c3ccccc3)c(=O)oc12	inconclusive: 21.7%	–
CCN1C(=NCCCCO)N[C@@H](c2ccccc2)C(C(=O)OC)=C1C	inconclusive: 16.7%	–
CC(C)NC(=O)Cn1cc(C(=O)C2CC2)c2ccccc21	inconclusive: 42.5%	–
Cc1cc(/C=C2/NC(=O)N(Cc3ccccc3F)C2=O)c(C)n1C	inconclusive: 4.8%	–
CC(NC(=O)CSc1nc2ccccc2c(=O)[nH]1)c1ccccc1 (centres undefined)	inconclusive: 2.52%	–
COc1ccc(S(=O)(=O)N(CCCN2CCOCC2)Cc2ccc(OC)c(OC)c2)cc1	–	inconclusive: 6.51 µM [rising, partial curve]

SMILES	lipid storage change, negative = inhibition	Potency
Cc1ccc(-c2cc(-c3ccccc3O)nc(N/N=C/c3cccnc3)n2)cc1	inconclusive: -6.09%	–
CCOc1cc(/C=N/O)ccc1OCc1ccc([N+](=O)[O-])cc1	–	inconclusive: 8.2 µM [activator, partial curve]
CC(=O)NCCc1nc2cc(NS(=O)(=O)c3ccccc3)ccc2n1C	inconclusive: 5%	–
COC(=O)c1ccccc1NC(=O)CSc1[nH]c(=O)cc(C)c1C#N	inconclusive: 1.81%	–
COc1cccc(NS(=O)(=O)c2ccc(-n3cccn3)cc2)c1	–	active: 0.0517 µM
CCCN1CCN(C(=S)Nc2ccc3nc(N4CCN(CC)CC4)cc(C)c3c2)CC1	inconclusive: 11.2%	–
Cc1ccc(Cc2nnc(SCC(=O)Nc3ccccc3Cl)[nH]c2=O)cc1	inconclusive: 29.4%	–
Cc1c(C)c2cc(Cl)c(O)c(CN3CCCCC3)c2oc1=O	inconclusive: 2.05%	–
Cc1ccc(NC(=O)c2ccc3c(c2)C(=O)N(CC2CCCO2)C3=O)cc1C (centres undefined)	inconclusive: -22.7%	–
Cc1ccc(S(=O)(=O)N2CCN(C(=O)CSc3n[nH]c(N)n3)CC2)c(C)c1	–	inconclusive: 4.11 µM [activator, full curve]
COc1cc(OC)c(OC)cc1/C=C/c1cc(C(F)(F)F)[nH]c(=O)n1	inconclusive: 6.08%	–
CCN(CC)CCCn1c(=S)[nH]c2ncccc2c1=O	–	inconclusive: 29.1 µM [falling, single point]
O=C1c2ccccc2C(=O)N1CC1CCCO1 (centres undefined)	–	inconclusive: 0.58 µM [activator, single point]
O=C(N/N=C/c1ccccn1)c1[nH]c2ccc([N+](=O)[O-])cc2c1-c1ccccc1	–	inconclusive: 23.1 µM [falling, single point]
Cc1ccc(P(=Nc2ccccc2)(N2CCOCC2)N2CCOCC2)o1	–	inconclusive: 0.13 µM [falling, full curve, poor fit]
CC(=O)Nc1nonc1-c1nc2ccccc2n1Cc1nnc(C)o1	inconclusive: 25%	–
O=C(Nc1ccc(S(=O)(=O)N2CCOCC2)cc1)c1ccco1	inactive	–
O=C(CSc1ccc(F)cc1)NCCSc1ccccc1	–	inconclusive: 29.1 µM [activator, single point]
S=C(Nc1ccc2c(c1)OCCO2)Nc1ccccc1Cl	inconclusive: 39.6%	–
CCOc1ccc(NC(=O)CN(C)C(=O)c2c(-c3ccccc3)noc2C)cc1OCC	–	inconclusive: 6.51 µM [activator, partial curve, poor fit]

Whole records, looked up by structure. Order of values: lipid storage change, negative = inhibition | Potency
Cc1ccc(S(=O)(=O)N2CCN(C(=O)CSc3n[nH]c(N)n3)CC2)c(C)c1 in the list: – | inconclusive: 4.11 µM [activator, full curve]
CC(=O)c1sc(N/N=C\c2ccccc2O)nc1C in the list: – | inconclusive: 0.82 µM [falling, full curve, poor fit]
O=C1c2ccccc2C(=O)N1CC1CCCO1 (centres undefined) in the list: – | inconclusive: 0.58 µM [activator, single point]
Cc1cc(/C=C2/NC(=O)N(Cc3ccccc3F)C2=O)c(C)n1C in the list: inconclusive: 4.8% | –

Remaining list, next part:

SMILES	lipid storage change, negative = inhibition	Potency
COC(=O)N/N=C/c1cc(Cl)cc(Cl)c1OCc1ccccc1	–	inconclusive: 0.411 µM [activator, partial curve, poor fit]
COc1ccccc1NC(=O)NNC(=O)CCc1ccccc1	–	inconclusive: 29.1 µM [activator, single point]
O=C1CN(C(=O)CNCc2ccc(Cl)cc2)c2ccccc2N1	inconclusive: -3.09%	–
Cc1cc(NC(=O)c2ccc(Cn3nc(C)c(Br)c3C)o2)no1	–	inconclusive: 0.0041 µM [activator, full curve, poor fit]
CN1C(C(=O)NCC2CC2)CC2Cn3c(nc4ccccc43)C21 (centres undefined)	inconclusive: 10.6%	–
O=C(CCc1ccc(S(=O)(=O)NC2CCCCC2)cc1)Nc1ccccc1	–	inconclusive: 29.1 µM [activator, single point]
CCN(CC(=O)Nc1ccc2c(c1)OCCO2)CC(=O)Nc1cc(C)on1	–	inconclusive: 23.1 µM [activator, single point]
CCc1ccc(-c2nc(SCC(=O)N(C)C3CCS(=O)(=O)C3)n[nH]2)cc1 (centres undefined)	inconclusive: -89%	–
COC(=O)CCCCC(=O)OC	inconclusive: 7.41%	–
CN(C)CCN(C(=O)CN1C(=O)c2ccccc2C1=O)c1nc2cc3c(cc2s1)OCO3	inconclusive: 3.22%	–
COc1cccc(C(=O)/C=C/Nc2ccc(S(=O)(=O)Nc3cc(OC)nc(OC)n3)cc2)c1	–	inconclusive: 23.1 µM [activator, partial curve]
CC(Sc1nnc(Cc2cccs2)n1C)C(=O)Nc1ccc(C(N)=O)cc1 (centres undefined)	inconclusive	–
CCOC(=O)N/N=C/c1cn(CCCOc2ccc(C)cc2)c2ccccc12	inconclusive: 32.5%	–
COc1ccc(OC)c(NC(=O)C(C)Oc2ccc(Br)cc2)c1 (centres undefined)	inconclusive: 0.724%	–
CS(=O)(=O)N1CCc2cc(C(=O)N3CCN(c4ccccc4F)CC3)ccc21	–	inconclusive: 0.517 µM [falling, single point]
CCOC(=O)Cc1c(C)c2c(C)nn(-c3ccccc3)c2oc1=O	inconclusive: -32.4%	–
CCOC(CCn1c(SCc2cccc([N+](=O)[O-])c2)nc2ccccc2c1=O)OCC	–	inconclusive: 6.51 µM [activator, single point]
Clc1cccc(Cl)c1Cn1cc(Br)cn1	inconclusive: 93.3%	–
CC1=C(C(=O)Nc2ccccc2C(=O)NCCCN2CCN(C)CC2)SCCO1	inconclusive: 20.8%	–
